The source of these data is PMC12391806.

Amino acid sequences for entries named in this document (tags omitted).
UniProt P49674: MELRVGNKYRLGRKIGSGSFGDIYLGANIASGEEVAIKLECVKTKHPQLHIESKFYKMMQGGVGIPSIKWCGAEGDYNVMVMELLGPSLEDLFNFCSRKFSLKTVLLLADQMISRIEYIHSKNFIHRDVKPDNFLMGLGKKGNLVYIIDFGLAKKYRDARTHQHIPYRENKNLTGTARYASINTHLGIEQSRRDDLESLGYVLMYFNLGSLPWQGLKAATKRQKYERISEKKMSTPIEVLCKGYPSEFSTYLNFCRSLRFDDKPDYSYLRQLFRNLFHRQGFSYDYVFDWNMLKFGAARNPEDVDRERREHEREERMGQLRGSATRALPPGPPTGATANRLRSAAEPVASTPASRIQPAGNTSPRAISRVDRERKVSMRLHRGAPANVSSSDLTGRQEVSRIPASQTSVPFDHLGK
UniProt O15169: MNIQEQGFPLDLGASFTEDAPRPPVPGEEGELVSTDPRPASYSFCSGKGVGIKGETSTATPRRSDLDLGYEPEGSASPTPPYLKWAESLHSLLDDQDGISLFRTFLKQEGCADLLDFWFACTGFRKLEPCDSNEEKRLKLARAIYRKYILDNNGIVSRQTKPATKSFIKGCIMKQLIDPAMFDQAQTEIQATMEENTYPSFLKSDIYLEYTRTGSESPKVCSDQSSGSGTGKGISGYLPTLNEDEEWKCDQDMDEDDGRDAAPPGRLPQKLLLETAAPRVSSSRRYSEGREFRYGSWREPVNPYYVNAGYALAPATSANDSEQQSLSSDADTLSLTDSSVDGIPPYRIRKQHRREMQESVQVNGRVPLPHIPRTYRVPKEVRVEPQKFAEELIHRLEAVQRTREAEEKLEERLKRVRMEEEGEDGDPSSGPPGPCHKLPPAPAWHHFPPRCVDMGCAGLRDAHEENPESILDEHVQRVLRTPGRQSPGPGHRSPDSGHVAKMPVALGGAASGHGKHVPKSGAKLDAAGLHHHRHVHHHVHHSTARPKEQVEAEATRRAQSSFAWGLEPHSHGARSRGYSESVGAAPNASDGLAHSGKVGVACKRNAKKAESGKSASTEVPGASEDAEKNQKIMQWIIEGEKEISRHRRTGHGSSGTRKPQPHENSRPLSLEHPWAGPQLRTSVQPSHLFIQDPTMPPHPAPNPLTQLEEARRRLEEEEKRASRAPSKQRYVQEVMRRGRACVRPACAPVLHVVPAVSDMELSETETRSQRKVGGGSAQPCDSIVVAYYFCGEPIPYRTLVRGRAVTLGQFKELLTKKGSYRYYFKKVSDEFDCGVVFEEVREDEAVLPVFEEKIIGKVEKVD
UniProt Q5BJF2: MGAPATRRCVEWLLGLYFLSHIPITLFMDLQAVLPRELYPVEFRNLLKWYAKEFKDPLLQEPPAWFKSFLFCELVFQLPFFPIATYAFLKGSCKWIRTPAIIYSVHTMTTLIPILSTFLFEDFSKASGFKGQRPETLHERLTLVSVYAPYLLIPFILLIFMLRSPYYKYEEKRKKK
UniProt O75494: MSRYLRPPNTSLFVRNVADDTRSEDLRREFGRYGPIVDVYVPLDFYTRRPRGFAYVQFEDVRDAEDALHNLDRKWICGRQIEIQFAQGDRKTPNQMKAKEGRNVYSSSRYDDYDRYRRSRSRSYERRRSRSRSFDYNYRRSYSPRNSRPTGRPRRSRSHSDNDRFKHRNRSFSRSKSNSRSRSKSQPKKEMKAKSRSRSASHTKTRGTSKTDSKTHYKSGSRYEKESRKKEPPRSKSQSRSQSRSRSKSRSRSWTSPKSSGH

To fix the notation:
B1: DVL1, endogenous in A549 cells (protein, UniProt O14640 1-695)
chain: MAETKIIYHMDEEETPYLVKLPVAPERVTLADFKNVLSNRPVHAYKFFFKSMDQDFGVVKEEIFDDNAKLPCFNGRVVSWLVLAEGAHSDAGSQGTDSHTDLPPPLERTGGIGDSRPPSFHPNVASSRDGMDNETGTESMVSHRRERARRRNREEAARTNGHPRGDRRRDVGLPPDSASTALSSELESSSFVDSDEDGSTSRLSSSTEQSTSSRLIRKHKRRRRKQRLRQADRASSFSSITDSTMSLNIVTVTLNMERHHFLGISIVGQSNDRGDGGIYIGSIMKGGAVAADGRIEPGDMLLQVNDVNFENMSNDDAVRVLREIVSQTGPISLTVAKCWDPTPRSYFTVPRADPVRPIDPAAWLSHTAALTGALPRYGTSPCSSAVTRTSSSSLTSSVPGAPQLEEAPLTVKSDMSAVVRVMQLPDSGLEIRDRMWLKITIANAVIGADVVDWLYTHVEGFKERREARKYASSLLKHGFLRHTVNKITFSEQCYYVFGDLCSNLATLNLNSGSSGTSDQDTLAPLPHPAAPWPLGQGYPYQYPGPPPCFPPAYQDPGFSYGSGSTGSQQSEGSKSSGSTRSSRRAPGREKERRAAGAGGSGSESDHTAPSGVGSSWRERPAGQLSRGSSPRSQASATAPGLPPPHPTTKAYTVVGGPPGGPPVRELAAVPPELTGSRQSFQKAMGNPCEFFVDIM

Results are given in words; binding and its absence hold for the method and conditions named. Binding seen in cells or lysates may run through a third protein. These calls come from enrichment with a bait or labelling near it, and not all partners need be listed.

The target of this experiment is CK1ε tagged with both Myc and BirA* (BioID bait) (UniProt P49674). Description: proximity labelling; BioID in stable A549 cells expressing Myc- and BirA*-tagged CK1ε (Tet-on); biotinylated proteins purified with streptavidin and identified by mass spectrometry.
Take “Axin1, endogenous in A549 cells (from UniProt O15169 1-862)”: the binding entry is on record as “binds”.
For the molecule “TMEM97, endogenous in A549 cells (from UniProt Q5BJF2 1-176)”, the binding result is “binds”.
As for “serine/arginine-rich splicing factor 10 (SRSF10), endogenous in A549 cells (from UniProt O75494 1-262)”, the binding result is recorded as “binds”.
As for B1, the entry is “binds”.
